# Experimental data reported in the supplement of paper PMC12819154, “High-throughput peptide-centric local stability assay extends protein–ligand identification to membrane proteins, tissues and bacteria” (Nature Structural & Molecular Biology, 2025).
# Protein sequences, listed by entry. Tags and fused reporters are not part of them. Lines headed by an entry give the natural chain unless they say otherwise; changes in a name come on top.
# UniProt P68402: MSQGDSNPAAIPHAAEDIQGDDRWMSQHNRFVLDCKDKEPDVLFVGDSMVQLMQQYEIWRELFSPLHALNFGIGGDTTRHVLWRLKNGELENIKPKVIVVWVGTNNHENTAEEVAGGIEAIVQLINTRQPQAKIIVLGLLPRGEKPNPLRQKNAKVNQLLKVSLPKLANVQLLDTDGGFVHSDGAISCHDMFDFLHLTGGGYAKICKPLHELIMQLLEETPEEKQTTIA
# UniProt P58012: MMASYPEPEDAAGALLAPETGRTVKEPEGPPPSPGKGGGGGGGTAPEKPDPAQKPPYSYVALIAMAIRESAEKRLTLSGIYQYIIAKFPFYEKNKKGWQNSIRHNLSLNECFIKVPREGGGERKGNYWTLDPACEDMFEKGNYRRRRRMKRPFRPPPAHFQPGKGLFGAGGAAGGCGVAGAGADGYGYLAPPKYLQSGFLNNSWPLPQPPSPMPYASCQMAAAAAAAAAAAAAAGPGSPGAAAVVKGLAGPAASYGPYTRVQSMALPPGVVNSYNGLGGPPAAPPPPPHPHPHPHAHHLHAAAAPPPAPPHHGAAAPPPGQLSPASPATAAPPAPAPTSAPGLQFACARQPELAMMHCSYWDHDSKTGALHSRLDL
# UniProt P62195, whole entry: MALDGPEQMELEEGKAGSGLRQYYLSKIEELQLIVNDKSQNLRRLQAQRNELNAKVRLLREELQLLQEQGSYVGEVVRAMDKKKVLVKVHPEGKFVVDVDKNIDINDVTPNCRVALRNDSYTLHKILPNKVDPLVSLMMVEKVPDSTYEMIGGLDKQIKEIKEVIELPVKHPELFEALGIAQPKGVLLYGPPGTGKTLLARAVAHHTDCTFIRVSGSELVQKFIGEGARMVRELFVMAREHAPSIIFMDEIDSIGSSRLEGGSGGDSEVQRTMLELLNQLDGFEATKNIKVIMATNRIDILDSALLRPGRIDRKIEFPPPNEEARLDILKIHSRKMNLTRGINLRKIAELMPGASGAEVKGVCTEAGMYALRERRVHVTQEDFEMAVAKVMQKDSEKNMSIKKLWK
# UniProt P78559: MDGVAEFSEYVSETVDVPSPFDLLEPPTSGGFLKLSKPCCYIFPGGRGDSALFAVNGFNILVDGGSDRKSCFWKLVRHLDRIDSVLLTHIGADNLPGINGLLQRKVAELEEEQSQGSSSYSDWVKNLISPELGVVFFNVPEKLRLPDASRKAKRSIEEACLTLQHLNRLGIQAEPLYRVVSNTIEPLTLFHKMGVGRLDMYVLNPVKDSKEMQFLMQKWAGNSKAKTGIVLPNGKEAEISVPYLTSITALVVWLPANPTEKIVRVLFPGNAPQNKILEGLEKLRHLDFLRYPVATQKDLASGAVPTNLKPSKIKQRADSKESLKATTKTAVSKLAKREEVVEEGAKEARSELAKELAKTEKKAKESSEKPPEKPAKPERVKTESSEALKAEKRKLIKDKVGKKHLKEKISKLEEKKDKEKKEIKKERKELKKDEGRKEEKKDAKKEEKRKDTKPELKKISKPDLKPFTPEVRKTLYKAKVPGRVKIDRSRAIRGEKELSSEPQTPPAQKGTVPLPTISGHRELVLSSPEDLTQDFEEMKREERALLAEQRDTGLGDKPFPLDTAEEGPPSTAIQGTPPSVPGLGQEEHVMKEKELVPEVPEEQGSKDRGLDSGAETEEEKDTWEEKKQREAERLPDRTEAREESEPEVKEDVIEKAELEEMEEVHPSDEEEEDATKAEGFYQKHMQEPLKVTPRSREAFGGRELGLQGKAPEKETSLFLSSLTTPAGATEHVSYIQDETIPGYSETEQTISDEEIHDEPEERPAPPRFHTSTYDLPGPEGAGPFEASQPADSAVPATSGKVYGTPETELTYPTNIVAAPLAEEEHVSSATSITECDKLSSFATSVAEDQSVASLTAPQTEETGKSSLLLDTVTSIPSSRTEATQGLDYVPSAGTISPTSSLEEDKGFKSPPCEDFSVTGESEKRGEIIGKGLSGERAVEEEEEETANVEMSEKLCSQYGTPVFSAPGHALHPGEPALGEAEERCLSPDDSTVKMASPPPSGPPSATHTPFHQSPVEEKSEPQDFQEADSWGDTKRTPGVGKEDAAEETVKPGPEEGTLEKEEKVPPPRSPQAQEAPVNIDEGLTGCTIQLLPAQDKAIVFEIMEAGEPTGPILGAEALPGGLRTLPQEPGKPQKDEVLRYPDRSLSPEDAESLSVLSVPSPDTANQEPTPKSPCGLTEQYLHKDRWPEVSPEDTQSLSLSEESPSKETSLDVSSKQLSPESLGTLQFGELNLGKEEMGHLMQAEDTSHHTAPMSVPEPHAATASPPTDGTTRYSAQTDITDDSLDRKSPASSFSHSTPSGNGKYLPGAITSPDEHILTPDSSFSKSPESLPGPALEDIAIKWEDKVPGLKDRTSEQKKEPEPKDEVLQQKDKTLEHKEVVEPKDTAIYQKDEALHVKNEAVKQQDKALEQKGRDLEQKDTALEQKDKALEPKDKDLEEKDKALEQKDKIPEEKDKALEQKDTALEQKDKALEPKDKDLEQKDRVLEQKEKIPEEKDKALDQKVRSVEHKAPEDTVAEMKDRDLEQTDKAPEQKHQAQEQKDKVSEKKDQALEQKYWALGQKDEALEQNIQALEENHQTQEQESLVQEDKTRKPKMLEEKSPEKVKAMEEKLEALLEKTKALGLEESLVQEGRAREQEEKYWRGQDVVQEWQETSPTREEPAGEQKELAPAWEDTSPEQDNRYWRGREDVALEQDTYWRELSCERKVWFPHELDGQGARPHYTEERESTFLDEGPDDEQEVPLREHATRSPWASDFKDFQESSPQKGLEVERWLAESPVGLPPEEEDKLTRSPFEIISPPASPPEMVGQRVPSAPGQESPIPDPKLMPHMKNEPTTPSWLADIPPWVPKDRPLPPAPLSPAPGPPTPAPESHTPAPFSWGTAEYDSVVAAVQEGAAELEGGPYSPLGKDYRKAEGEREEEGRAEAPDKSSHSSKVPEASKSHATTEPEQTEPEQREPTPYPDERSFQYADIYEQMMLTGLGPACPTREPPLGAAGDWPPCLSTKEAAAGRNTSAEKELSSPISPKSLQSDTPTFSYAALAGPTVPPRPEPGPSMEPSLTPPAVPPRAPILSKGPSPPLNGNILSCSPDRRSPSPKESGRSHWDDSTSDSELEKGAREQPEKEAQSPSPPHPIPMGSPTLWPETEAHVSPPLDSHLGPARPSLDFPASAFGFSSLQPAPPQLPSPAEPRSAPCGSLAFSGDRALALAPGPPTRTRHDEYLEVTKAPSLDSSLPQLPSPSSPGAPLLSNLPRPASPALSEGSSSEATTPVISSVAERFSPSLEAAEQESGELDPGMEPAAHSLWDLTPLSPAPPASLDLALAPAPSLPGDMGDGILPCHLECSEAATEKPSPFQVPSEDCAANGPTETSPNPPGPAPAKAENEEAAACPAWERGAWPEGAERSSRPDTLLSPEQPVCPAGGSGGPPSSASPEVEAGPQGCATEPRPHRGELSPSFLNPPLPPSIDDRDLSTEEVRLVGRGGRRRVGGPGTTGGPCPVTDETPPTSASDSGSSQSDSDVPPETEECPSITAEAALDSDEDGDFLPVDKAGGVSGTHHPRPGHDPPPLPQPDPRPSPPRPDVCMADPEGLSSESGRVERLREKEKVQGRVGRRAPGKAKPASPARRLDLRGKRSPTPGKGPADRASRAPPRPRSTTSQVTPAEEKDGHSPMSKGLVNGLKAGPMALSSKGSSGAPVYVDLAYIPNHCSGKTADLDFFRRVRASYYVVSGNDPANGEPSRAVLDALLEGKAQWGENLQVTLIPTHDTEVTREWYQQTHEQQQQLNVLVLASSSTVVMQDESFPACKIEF
# Some of the results follow. Most entries show no effect beyond the scatter of the controls.
# Compound: CN[C@@H]1C[C@H]2O[C@@](C)([C@@H]1OC)n1c3ccccc3c3c4c(c5c6ccccc6n2c5c31)C(=O)NC4 [staurosporine]
# Assay: log2 fold change of tryptic peptide abundance, ligand vs vehicle (limited proteolysis) (log2 ratio); higher = more trypsin-susceptible (destabilized)
# Conditions: ligand concentration: 20 uM; sample: K562 cleared lysate; digestion: 4 min, 22 C (HT-PELSA RT4min, Orbitrap Astral)
row,Target,log2 fold change
1,"MRPS6 (peptide sequence: AMQRPETAATLK, peptide start residue: 12) (UniProt P82932)",0.228
2,"PAFAH1B2 (peptide sequence: GEKPNPLR, peptide start residue: 143) (UniProt P68402)",0.618
3,"UniProt P62263 (peptide sequence: IEDVTPIPSDSTR, peptide start residue: 129)",0.244
4,"FOXL2 (peptide sequence: RPFRPPPAHFQPGK, peptide start residue: 151) (UniProt P58012)",-0.263
5,"UniProt P62195 (peptide sequence: TMLELLNQLDGFEATK, peptide start residue: 272)",-0.319
6,"UniProt P78559 (peptide sequence: GREDVALEQDTYWR, peptide start residue: 1685)",-0.248

# Two entries from above, as tab-separated lines:
row	Target	log2 fold change
2	PAFAH1B2 (peptide sequence: GEKPNPLR, peptide start residue: 143) (UniProt P68402)	0.618
3	UniProt P62263 (peptide sequence: IEDVTPIPSDSTR, peptide start residue: 129)	0.244
